Results as given in the supplement of paper PMC10849652.
Some of the results follow.

By UniProt entry, the sequences of proteins in these tests, tags left out. Where a name states a change or a piece, a line headed by the entry shows the natural chain unless it says otherwise.
UniProt Q15147: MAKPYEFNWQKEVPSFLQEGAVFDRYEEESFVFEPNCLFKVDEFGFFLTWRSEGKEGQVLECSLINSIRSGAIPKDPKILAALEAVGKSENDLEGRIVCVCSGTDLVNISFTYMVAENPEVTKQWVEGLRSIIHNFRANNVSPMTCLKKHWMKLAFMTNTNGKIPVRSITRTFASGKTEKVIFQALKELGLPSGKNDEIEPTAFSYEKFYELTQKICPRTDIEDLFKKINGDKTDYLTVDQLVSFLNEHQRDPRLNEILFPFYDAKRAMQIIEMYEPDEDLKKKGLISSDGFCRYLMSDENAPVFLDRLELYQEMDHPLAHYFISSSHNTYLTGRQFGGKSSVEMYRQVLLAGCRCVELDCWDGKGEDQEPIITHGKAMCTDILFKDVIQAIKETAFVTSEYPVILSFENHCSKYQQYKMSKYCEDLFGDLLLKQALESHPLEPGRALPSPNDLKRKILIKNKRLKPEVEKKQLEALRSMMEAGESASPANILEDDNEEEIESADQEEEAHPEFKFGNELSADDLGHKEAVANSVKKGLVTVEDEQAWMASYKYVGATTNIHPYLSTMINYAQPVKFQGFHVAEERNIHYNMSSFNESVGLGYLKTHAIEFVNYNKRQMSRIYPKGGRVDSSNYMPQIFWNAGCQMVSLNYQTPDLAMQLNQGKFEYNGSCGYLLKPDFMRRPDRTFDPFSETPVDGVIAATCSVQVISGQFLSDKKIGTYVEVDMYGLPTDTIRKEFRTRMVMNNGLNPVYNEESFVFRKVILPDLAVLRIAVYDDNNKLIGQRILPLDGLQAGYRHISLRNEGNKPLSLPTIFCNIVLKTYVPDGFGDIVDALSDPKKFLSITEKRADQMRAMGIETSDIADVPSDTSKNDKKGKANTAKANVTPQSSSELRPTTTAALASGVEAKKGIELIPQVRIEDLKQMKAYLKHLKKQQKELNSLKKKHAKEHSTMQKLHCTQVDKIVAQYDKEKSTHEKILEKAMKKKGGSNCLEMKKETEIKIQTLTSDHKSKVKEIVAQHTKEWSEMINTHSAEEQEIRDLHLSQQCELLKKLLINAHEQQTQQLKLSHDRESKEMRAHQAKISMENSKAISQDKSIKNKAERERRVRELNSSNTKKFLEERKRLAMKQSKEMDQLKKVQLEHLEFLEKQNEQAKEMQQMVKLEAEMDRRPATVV
UniProt O94880: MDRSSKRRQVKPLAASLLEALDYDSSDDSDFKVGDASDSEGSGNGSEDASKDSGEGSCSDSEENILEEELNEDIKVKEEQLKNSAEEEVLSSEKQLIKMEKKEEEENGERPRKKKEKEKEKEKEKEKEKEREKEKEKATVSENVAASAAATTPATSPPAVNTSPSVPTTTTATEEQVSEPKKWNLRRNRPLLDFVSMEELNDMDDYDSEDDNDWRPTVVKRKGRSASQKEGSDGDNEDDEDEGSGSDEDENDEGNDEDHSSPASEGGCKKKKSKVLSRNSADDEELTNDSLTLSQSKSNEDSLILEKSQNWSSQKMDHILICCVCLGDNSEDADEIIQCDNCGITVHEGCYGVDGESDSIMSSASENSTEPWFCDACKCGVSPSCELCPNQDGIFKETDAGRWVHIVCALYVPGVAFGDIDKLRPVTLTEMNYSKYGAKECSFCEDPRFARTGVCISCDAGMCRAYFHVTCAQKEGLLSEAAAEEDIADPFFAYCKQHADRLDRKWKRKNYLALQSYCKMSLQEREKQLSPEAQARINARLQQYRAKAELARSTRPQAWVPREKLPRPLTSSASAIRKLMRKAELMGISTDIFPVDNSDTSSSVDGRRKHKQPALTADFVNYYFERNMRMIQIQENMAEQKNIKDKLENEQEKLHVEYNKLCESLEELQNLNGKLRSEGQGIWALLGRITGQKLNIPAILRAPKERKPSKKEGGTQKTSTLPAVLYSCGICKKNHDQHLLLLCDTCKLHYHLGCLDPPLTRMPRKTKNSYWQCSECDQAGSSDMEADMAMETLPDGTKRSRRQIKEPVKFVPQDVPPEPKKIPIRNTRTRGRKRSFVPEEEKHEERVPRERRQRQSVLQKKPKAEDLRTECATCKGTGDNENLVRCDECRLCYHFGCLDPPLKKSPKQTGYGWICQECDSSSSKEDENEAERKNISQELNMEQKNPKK
UniProt P78337, whole entry, looked up: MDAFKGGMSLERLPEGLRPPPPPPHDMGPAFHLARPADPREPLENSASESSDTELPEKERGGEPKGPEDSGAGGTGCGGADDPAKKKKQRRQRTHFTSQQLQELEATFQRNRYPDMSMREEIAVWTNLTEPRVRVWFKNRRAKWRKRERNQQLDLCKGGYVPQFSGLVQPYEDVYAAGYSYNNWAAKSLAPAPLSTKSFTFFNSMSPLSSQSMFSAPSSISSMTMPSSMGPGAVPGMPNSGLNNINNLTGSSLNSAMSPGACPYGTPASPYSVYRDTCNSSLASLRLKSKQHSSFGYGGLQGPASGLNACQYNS
UniProt Q7Z3Z4: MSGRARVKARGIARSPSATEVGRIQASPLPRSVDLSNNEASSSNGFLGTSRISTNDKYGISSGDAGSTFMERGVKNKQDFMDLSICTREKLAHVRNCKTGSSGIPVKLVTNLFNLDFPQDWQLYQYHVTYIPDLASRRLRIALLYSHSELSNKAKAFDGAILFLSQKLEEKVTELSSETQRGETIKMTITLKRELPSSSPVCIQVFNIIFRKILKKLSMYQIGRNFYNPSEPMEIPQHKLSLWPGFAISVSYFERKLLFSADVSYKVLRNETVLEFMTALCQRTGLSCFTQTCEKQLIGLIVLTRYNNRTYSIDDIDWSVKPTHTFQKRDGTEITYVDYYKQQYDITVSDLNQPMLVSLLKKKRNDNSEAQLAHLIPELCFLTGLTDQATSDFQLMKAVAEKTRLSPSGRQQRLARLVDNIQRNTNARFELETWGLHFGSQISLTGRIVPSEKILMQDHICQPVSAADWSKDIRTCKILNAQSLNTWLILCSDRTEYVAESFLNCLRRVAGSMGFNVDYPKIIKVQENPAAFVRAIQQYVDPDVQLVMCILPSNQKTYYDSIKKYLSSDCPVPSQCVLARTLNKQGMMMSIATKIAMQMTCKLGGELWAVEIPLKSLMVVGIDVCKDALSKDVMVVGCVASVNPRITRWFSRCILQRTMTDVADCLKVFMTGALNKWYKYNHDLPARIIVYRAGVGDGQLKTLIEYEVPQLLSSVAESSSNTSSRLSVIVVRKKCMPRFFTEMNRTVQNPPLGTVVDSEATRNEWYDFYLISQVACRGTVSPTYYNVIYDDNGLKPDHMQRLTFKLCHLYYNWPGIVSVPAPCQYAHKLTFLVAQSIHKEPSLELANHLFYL
UniProt O14986: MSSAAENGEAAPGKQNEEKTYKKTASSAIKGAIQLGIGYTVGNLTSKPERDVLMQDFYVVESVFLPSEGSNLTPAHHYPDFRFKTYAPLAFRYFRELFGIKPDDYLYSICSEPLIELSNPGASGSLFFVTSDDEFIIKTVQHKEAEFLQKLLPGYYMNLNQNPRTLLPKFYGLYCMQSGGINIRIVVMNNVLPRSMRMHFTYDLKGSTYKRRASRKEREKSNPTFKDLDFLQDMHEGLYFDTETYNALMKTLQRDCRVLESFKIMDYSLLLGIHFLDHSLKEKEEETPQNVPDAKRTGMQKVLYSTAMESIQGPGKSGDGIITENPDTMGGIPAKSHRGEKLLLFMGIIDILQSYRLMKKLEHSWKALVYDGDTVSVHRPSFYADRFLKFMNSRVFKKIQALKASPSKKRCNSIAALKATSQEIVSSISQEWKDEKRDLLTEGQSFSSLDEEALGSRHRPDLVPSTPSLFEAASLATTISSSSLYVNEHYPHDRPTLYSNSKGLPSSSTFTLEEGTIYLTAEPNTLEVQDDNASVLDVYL
UniProt P36871: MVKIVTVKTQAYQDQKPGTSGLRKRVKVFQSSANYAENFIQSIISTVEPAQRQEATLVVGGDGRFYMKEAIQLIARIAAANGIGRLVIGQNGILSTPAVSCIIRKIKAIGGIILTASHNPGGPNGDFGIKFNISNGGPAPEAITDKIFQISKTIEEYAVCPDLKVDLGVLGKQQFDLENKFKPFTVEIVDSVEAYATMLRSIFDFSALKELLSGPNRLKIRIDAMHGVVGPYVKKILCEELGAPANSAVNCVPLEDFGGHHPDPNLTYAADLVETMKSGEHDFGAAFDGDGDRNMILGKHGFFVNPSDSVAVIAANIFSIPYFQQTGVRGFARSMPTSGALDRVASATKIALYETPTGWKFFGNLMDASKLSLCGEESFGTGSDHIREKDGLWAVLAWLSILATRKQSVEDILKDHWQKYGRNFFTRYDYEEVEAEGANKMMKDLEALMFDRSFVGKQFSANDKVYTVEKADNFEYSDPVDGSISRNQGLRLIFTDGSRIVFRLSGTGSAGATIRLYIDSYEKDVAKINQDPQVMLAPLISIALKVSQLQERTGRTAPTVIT
UniProt P78364: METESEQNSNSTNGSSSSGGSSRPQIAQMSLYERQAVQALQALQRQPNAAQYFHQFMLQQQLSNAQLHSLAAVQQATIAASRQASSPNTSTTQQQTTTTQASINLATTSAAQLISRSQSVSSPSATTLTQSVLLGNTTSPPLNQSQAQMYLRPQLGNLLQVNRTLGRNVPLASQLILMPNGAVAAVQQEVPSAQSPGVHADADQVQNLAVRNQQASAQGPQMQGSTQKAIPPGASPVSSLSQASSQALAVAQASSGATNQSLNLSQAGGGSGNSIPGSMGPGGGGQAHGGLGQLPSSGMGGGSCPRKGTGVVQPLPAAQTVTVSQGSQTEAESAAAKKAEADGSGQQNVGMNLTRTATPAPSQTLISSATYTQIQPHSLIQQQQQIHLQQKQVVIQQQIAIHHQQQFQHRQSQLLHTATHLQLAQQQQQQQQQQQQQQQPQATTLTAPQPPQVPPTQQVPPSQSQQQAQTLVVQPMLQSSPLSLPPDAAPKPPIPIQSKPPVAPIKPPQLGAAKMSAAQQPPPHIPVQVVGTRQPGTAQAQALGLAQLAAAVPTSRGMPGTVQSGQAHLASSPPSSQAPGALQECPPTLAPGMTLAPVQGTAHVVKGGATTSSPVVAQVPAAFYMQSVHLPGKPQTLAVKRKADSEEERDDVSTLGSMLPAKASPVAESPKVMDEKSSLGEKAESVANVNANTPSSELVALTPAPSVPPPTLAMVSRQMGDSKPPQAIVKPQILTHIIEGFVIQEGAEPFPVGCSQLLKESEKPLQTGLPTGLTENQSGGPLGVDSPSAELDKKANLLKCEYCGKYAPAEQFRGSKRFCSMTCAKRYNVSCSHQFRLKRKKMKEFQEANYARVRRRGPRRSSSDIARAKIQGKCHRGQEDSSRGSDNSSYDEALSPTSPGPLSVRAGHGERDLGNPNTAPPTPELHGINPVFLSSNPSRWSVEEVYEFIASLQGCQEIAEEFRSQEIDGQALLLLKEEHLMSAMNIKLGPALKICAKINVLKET
UniProt Q9Y2B2: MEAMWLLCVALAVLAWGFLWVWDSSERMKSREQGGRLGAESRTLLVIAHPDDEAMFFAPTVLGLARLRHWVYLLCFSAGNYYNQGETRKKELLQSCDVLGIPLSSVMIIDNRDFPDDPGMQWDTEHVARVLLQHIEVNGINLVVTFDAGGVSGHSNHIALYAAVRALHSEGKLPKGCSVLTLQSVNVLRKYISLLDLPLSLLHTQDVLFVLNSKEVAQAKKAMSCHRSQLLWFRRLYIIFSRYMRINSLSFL
UniProt O60331: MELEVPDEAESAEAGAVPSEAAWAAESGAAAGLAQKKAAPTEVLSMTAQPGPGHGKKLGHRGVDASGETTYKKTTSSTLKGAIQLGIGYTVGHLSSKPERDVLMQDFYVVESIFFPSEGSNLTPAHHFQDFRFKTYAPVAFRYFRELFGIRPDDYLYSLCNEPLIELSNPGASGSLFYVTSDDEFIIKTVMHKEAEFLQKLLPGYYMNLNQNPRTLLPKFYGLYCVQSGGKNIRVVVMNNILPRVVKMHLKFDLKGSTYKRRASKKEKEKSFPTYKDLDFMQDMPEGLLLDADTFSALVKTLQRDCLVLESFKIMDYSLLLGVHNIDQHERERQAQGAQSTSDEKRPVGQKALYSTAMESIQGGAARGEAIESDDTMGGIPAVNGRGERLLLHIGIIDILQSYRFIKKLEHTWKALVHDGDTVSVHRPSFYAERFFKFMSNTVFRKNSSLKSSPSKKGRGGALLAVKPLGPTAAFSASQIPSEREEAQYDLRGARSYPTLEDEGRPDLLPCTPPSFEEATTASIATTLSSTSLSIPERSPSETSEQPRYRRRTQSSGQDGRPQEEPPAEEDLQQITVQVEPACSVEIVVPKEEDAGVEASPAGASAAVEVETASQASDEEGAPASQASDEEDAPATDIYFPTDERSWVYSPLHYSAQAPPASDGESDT

Experiments:
Assay in all cases: log2 fold change, soluble protein after heating vs DMSO (PISA); higher = thermal stabilisation; K562 lysate, 10 uM; active = over 0.2 and 3.5 SD of the protein, either way, in both replicates (recomputed)
Tubastatin A = compound: CN1CCc2c(c3ccccc3n2Cc2ccc(C(=O)NO)cc2)C1 [Tubastatin A]
How it was run: (§1)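 Following dounce homogenisation of K562 pellets in PBS pH 7.4 with 1 mM MgCl2, crude extract at 1 mg/mL protein was incubated for 30 min with 10 μM compound. Aliquots were then heated for 3 min over 48°C-58°C and pooled, NP-40 was added to 0.5% at 4°C, and soluble protein was recovered as the supernatant at 21,000xg for 90 min. Channel-sum-equalised TMTpro 16plex LC-MS/MS quantified this protein. Each value, from duplicates, is a log-two fold change in thermal stability relative to solvent controls.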

[1] = compound: CNC(=O)C1=CC=CC=C1NC2=NC(=NC=C2Cl)NC3=C(C=C(C=C3)N4CCOCC4)OC
How it was run: as §1

encorafenib = compound: COC(=O)N[C@@H](C)CNc1nccc(-c2cn(C(C)C)nc2-c2cc(Cl)cc(NS(C)(=O)=O)c2F)n1 [encorafenib]
How it was run: as §1

[2] = compound: COC(=O)[C@H](CCSC)NC(=O)C1=C(C=C(C=C1)NC[C@H](CS)N)C2=CC=CC=C2
How it was run: as §1

[3] = compound: COc1cc2nc(-c3cc(F)ccc3O)nc(N[C@@H]3CNC[C@H]3C(C)(C)O)c2cc1OC
How it was run: as §1

lapatinib = compound: CS(=O)(=O)CCNCc1ccc(-c2ccc3ncnc(Nc4ccc(OCc5cccc(F)c5)c(Cl)c4)c3c2)o1 [lapatinib]
How it was run: as §1

tozasertib = compound: Cc1cc(Nc2cc(N3CCN(C)CC3)nc(Sc3ccc(NC(=O)C4CC4)cc3)n2)n[nH]1 [tozasertib]
How it was run: as §1

defactinib = compound: CNC(=O)c1ccc(Nc2ncc(C(F)(F)F)c(NCc3nccnc3N(C)S(C)(=O)=O)n2)cc1 [defactinib]
How it was run: as §1

[4] = compound: CNc1nc(-c2ccc3c(N)n[nH]c3c2)cc(N2C[C@@H](C(=O)NC3CCCCC3)CC[C@H]2C)n1
How it was run: as §1

alisertib = compound: COc1cc(Nc2ncc3c(n2)-c2ccc(Cl)cc2C(c2c(F)cccc2OC)=NC3)ccc1C(=O)O [alisertib]
How it was run: as §1

gefitinib = compound: COc1cc2ncnc(Nc3ccc(F)c(Cl)c3)c2cc1OCCCN1CCOCC1 [gefitinib]
How it was run: as §1

pictilisib = compound: CS(=O)(=O)N1CCN(Cc2cc3nc(-c4cccc5[nH]ncc45)nc(N4CCOCC4)c3s2)CC1 [pictilisib]
How it was run: as §1

duvelisib = compound: C[C@H](Nc1ncnc2nc[nH]c12)c1cc2cccc(Cl)c2c(=O)n1-c1ccccc1 [duvelisib]
How it was run: as §1

bafetinib = compound: Cc1ccc(NC(=O)c2ccc(CN3CC[C@H](N(C)C)C3)c(C(F)(F)F)c2)cc1Nc1nccc(-c2cncnc2)n1 [bafetinib]
How it was run: as §1

crizotinib = compound: C[C@@H](Oc1cc(-c2cnn(C3CCNCC3)c2)cnc1N)c1c(Cl)ccc(F)c1Cl [crizotinib]
How it was run: as §1

doramapimod = compound: Cc1ccc(-n2nc(C(C)(C)C)cc2NC(=O)Nc2ccc(OCCN3CCOCC3)c3ccccc23)cc1 [doramapimod]
How it was run: as §1

Measured: log2 fold change

PLCB4 isoform 4 (UniProt Q15147)
inactive: Tubastatin A 0.402 | [1] 0.206 | encorafenib 0.015 | [2] -0.061 | [3] -0.077 | lapatinib -0.264 | tozasertib 0.198

PHF14 (UniProt O94880)
inactive: Tubastatin A 0.01 | defactinib -0.012 | [4] 0.02 | encorafenib -0.014 | [2] 0.1 | alisertib 0.044 | [3] -0.069 | gefitinib -0.042 | lapatinib 0.199 | pictilisib -0.049 | duvelisib 0.024 | tozasertib -0.117 | bafetinib -0.013

PHOX2B (UniProt Q99453)
inactive: defactinib -0.078 | [4] -0.17 | encorafenib 0.055 | [2] 0.007 | alisertib 0.076 | gefitinib 0.032 | pictilisib 0.014 | crizotinib -0.246 | duvelisib 0.265 | tozasertib 0.072 | doramapimod 0.191 | bafetinib -0.29

PITX1 (UniProt P78337)
inactive: defactinib 0.006 | [4] 0.215 | encorafenib 0.117 | [2] 0.031 | pictilisib 0.14 | crizotinib -0.013 | duvelisib -0.018 | tozasertib 0.097 | doramapimod 0.065 | bafetinib -0.009

Random excerpt: 2 entries already listed, in no set order.
PITX1 (UniProt P78337)
inactive: defactinib 0.006 | [4] 0.215 | encorafenib 0.117 | [2] 0.031 | pictilisib 0.14 | crizotinib -0.013 | duvelisib -0.018 | tozasertib 0.097 | doramapimod 0.065 | bafetinib -0.009

PHOX2B (UniProt Q99453)
inactive: defactinib -0.078 | [4] -0.17 | encorafenib 0.055 | [2] 0.007 | alisertib 0.076 | gefitinib 0.032 | pictilisib 0.014 | crizotinib -0.246 | duvelisib 0.265 | tozasertib 0.072 | doramapimod 0.191 | bafetinib -0.29

Carrying on:

PIWIL4 (UniProt Q7Z3Z4)
inactive: alisertib -0.118 | gefitinib -0.054

PGM3 (UniProt D6RCQ8)
inactive: [3] -0.104 | lapatinib 0.185 | pictilisib -0.415 | bafetinib -0.391

PIP5K1B isoform 2 (UniProt O14986)
inactive: pictilisib 0.197 | crizotinib 0.137 | doramapimod 0.079 | bafetinib -0.048

PGM1 isoform 2 (UniProt P36871)
inactive: [1] -0.159 | [4] 0.055 | encorafenib -0.172 | [2] 0.196 | duvelisib -0.394 | tozasertib 0.039

PHC1 (UniProt P78364)
inactive: defactinib 0.005 | [4] 0.184 | encorafenib 0.059 | [2] -0.062 | alisertib -0.017 | gefitinib -0.101 | pictilisib -0.025 | crizotinib 0.063 | duvelisib -0.025 | tozasertib 0.022 | doramapimod -0.254 | bafetinib 0

PIGL (UniProt Q9Y2B2)
inactive: Tubastatin A -0.027 | [1] 0.095 | [4] 0.072 | encorafenib 0.011 | [2] 0.394 | [3] -0.087 | lapatinib -0.06 | pictilisib 0.031 | crizotinib 0.041 | duvelisib -0.14 | tozasertib -0.069 | doramapimod -0.192 | bafetinib -0.038

PIP5K1C isoform 3 (UniProt O60331)
inactive: Tubastatin A -0.025 | [1] -0.034 | [4] -0.074 | encorafenib -0.078 | [2] 0.015 | alisertib -0.008 | [3] 0.03 | gefitinib -0.092 | lapatinib -0.077 | pictilisib 0.017 | crizotinib -0.09 | duvelisib 0.032 | tozasertib -0.005 | doramapimod 0.028 | bafetinib 0.076

PKM (UniProt H3BTN5)
inactive: [1] 0.316 | defactinib -0.009 | encorafenib -0.005 | [2] -0.094 | [3] -0.055 | lapatinib 0.115 | pictilisib -0.204 | crizotinib -0.048 | tozasertib 0.111 | doramapimod -0.004 | bafetinib 0.312

PIK3C2A (UniProt O00443)
inactive: Tubastatin A -0.139 | [1] -0.019 | [4] 0.062 | encorafenib -0.13 | [2] 0 | alisertib 0.027 | [3] -0.035 | gefitinib -0.007 | lapatinib 0.004 | pictilisib -0.02 | crizotinib -0.027 | duvelisib -0.005 | tozasertib -0.201 | doramapimod -0.069 | bafetinib -0.017
